1 molecule from PMC4680915 can be followed below.

The target of the test is E. coli RNA 5′ pyrophosphohydrolase (RppH) (Escherichia coli) (UniProt P0A776). Put plainly: SEC; HiPrep 26/60 Superdex 200 prep grade; 50 mM Tris-HCl pH 7.5, 1 mM EDTA, 0.30 M NaCl; 2.0 mL/min; EcRppH peak at 259.4 mL, compared with molecular weight standards (myoglobin Mr 17,000 at 253.4 mL); both purified.

No constants are given. Whether binding was seen depends on the method and setting.

B1: E. coli RNA 5′ pyrophosphohydrolase (RppH) (enzyme, UniProt P0A776 1-176)
chain: MIDDDGYRPNVGIVICNRQGQVMWARRFGQHSWQFPQGGINPGESAEQAMYRELFEEVGLSRKDVRILASTRNWLRYKLPKRLVRWDTKPVCIGQKQKWFLLQLVSGDAEINMQTSSTPEFDGWRWVSYWYPVRQVVSFKRDVYRRVMKEFASVVMSLQENTPKPQNASAYRRKRG
As to B1, the binding entry is reported as “no binding”.
